In PubChem BioAssay AID2685 (National Center for Advancing Translational Sciences (NCATS), 2010):
Some of the results follow. The main result of the screen is listed elsewhere. These columns were measured beside it and carry no call. Most of these compounds were active or inconclusive in the main read-out, so they are no random draw. Potencies come from curve fits of mixed quality, noted in brackets.

Test: qHTS Assay for Lipid Storage Modulators in Drosophila S3 Cells;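 on cell number change: cells counted by Cell Tracker Red CMTPX staining in the red channel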
Conditions: BODIPY lipid droplet fluorescence, 18-24 h; for cell number change: measured here: cell count max response, cells fed with added oleic acid
Outline: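 Laser-scanning cytometry quantifies lipid droplet accumulation (500–530 nm total intensity; droplet/cell object ratio) in oleic acid-fed (400 uM added) Drosophila S3 cells treated with a concentration series. 20 uM Triacsin C defined 100% inhibition.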

[1] = measured here: lipid fluorescence (Fed channel) AC50, cells fed with added oleic acid
[2] = measured here: cell number channel AC50, cells fed with added oleic acid

Row | Compound | cell number change [%] | AC50 [1] | AC50 [2]
1 | O=C(N/N=C/c1c[nH]c2ccccc12)c1ccccc1O | -21.7 | 1.03 µM [falling, full curve] | 
2 | Cc1ccc(CC(=O)Nc2ccc(S(=O)(=O)Nc3ncccn3)cc2)cc1 | 21.7 |  | 
3 | N#CC1=C(SCC(=O)c2ccc(Cl)cc2)NC2=C(C(=O)CCC2)C1c1ccco1 (stereo not drawn) | -25.1 | 0.58 µM [rising, partial curve] | 
4 | CCC1CCCCN1C(=O)CCc1nnc(Cc2cc(OC)ccc2OC)o1 (stereo not drawn) | -21.2 | 23.1 µM [falling, partial curve] | 
5 | O=C(NCCC(c1ccccc1)c1ccccc1)c1cnc2sccn2c1=O | -19.8 |  | 
6 | Cc1cc(C(=O)NNC(=O)Cc2ccc(Cl)c(Cl)c2)c(C)o1 |  |  | 0.92 µM [rising, partial curve]
7 | CCOC(=O)c1cccc(N/C=C/C(=O)c2ccc(OC)c(OC)c2)c1 | -9.63 | 20.6 µM [falling, single point] | 
8 | Cc1ccc(C(=O)N2CC(C)CC(C)C2)cc1NC1=NC2CS(=O)(=O)CC2S1 (stereo not drawn) | 25.6 |  | 
9 | Cc1c(N2C(=O)CSC2c2ccco2)c(=O)n(-c2ccccc2)n1C (stereo not drawn) | -22.4 | 29.1 µM [falling, single point] | 0.82 µM [falling, full curve, poor fit]
10 | CCOc1cc(C2NN=C(c3ccc(C)cc3)S2)ccc1O (stereo not drawn) | 40 | 2.06 µM [rising, partial curve, poor fit] | 20.6 µM [rising, single point]
11 | CCOc1ccc(C(=O)N/N=C/c2ccccc2[N+](=O)[O-])cc1 | 6.37 | 2.91 µM [rising, full curve, poor fit] | 
12 | Cc1ccccc1NC(=O)C(C)OC(=O)CNS(=O)(=O)c1ccc(C#N)cc1 (stereo not drawn) |  | 6.51 µM [rising, single point] | 
13 | COc1ccc(OC)c(Cc2nnc(CCC(=O)NC3C4CC5CC(C4)CC3C5)o2)c1 (stereo not drawn) | -40.1 | 10.3 µM [falling, partial curve] | 18.4 µM [falling, single point]
14 | COc1cccc(CNC2CCCC2)c1 | -3.97 |  | 0.082 µM [falling, full curve, poor fit]
15 | N#C/C(=C/c1ccc(N2CCCCC2)o1)C(=O)NCCc1c[nH]c2ccccc12 | -45.6 | 20.6 µM [falling, partial curve] | 20.6 µM [falling, partial curve]
16 | COc1ccc(NC(=S)c2ccccc2)cc1 | 66.8 | 5.17 µM [rising, full curve, poor fit] | 5.8 µM [rising, full curve]
17 | O=c1[nH]c2ccsc2c(=O)n1-c1ccc(F)c(Cl)c1 | -14.7 | 0.58 µM [falling, single point] | 0.461 µM [falling, full curve, poor fit]
18 | CCS(=O)(=O)N1Cc2ccccc2CC1C(=O)Nc1nnc(SCc2ccc(C#N)cc2)s1 (stereo not drawn) | 46.2 |  | 18.4 µM [rising, single point]
19 | O=c1[nH]c(=O)n(C2OC(CO)C(O)C2O)cc1Br (stereo not drawn) | 1.26 | 5.8 µM [rising, full curve] | 7.31 µM [rising, partial curve, poor fit]

Row | Compound | cell number change [%] | AC50 [1] | AC50 [2]
20 | COCCCNC(=O)c1ccc(NS(C)(=O)=O)cc1 | -107 |  | 20.6 µM [falling, partial curve]
21 | Fc1ccccc1NC(=S)N/N=C/c1ccccc1Br | 36.9 |  | 2.31 µM [rising, full curve]
22 | Cc1nc(C)c(-c2ccn(S(=O)(=O)c3ccc(Cl)cc3)n2)o1 | -24.8 |  | 
23 | O=C(CNC(=O)C1CCCCC1)NC1CCCCC1 | 6.08 | 32.6 µM [rising, single point] | 
24 | CCOc1ccc(CC(=O)Nc2ccc(-c3ccc4nnc(C)n4n3)cc2)cc1 |  | 5.17 µM [falling, partial curve] | 3.66 µM [falling, partial curve]
25 | COCCNc1nnc(SCC(=O)Nc2sc3c(c2C(=O)c2ccccc2)CCCC3)s1 | -28.8 | 18.4 µM [falling, partial curve, poor fit] | 
26 | O=C(NC1CCCC1)c1cc(-c2cccc(Cl)c2)on1 | 23.3 | 0.0291 µM [rising, full curve] | 
27 | CC(=O)c1ccc(N2CCN(S(=O)(=O)c3cccc4nsnc34)CC2)cc1 | 8.64 | 0.116 µM [rising, full curve] | 
28 | O=c1cnnc(Nc2ccc(F)cc2)[nH]1 | -43.1 | 23.1 µM [falling, single point] | 29.1 µM [falling, single point]
29 | COc1ccc(NC(=O)c2cnc3sccn3c2=O)cc1 | 22.7 | 16.4 µM [rising, single point] | 
30 | COc1cc(S(=O)(=O)NCCN2CCOCC2)c(OC)cc1Cl | -194 |  | 25.9 µM [falling, partial curve]
31 | COc1ccc(C(=O)NC(C)c2nnc(SCC(=O)Nc3nc4ccccc4s3)n2C)cc1 (stereo not drawn) | -16.3 |  | 
32 | Cc1ccc(C)c(S(=O)(=O)N2CCN(Cc3ccc(O)c4ncccc34)CC2)c1 | 2.3 |  | 
33 | CCOc1ccc(/C=N/NC(=O)CN2CCCCC2)cc1OCC | -12.2 | 0.58 µM [rising, partial curve, poor fit] | 
34 | Cc1cccc(N2CCN(S(=O)(=O)c3cc4c(cc3Cl)NC(=O)CO4)CC2)c1C | 24.5 |  | 0.058 µM [rising, full curve, poor fit]
35 | Cc1cnc(C(=O)NC(C)CCc2ccccc2)cn1 (stereo not drawn) | 9 | 6.51 µM [rising, partial curve] | 6.51 µM [rising, partial curve, poor fit]
36 | OC(CNCc1ccco1)Cn1c2ccc(Br)cc2c2cc(Br)ccc21 (stereo not drawn) |  | 4.11 µM [rising, single point] | 
37 | CC(=O)Nc1ccc(OCCC[n+]2ccccc2)cc1 | -13.7 | 0.326 µM [falling, partial curve, poor fit] | 
38 | CCN(C(=O)c1cc(Cl)ccc1OC)C1CCCCC1 | 20.1 | 29.1 µM [rising, single point] | 

Row | Compound | cell number change [%] | AC50 [1] | AC50 [2]
39 | Nc1nc2n(n1)C(c1cccs1)CC(c1ccccc1)N2 (stereo not drawn) | 27.9 | 0.146 µM [rising, full curve, poor fit] | 0.00731 µM [rising, full curve, poor fit]
40 | Cc1cc(C(=O)CN2C(=O)NC3(CCCc4sccc43)C2=O)c(C)n1-c1ccc(Cl)cc1 (stereo not drawn) | -2.08 | 2.59 µM [rising, single point] | 
41 | O=C(COc1ccc(S(=O)(=O)NC2CCCC2)cc1)NCC1CCCO1 (stereo not drawn) | -13.9 | 2.31 µM [falling, single point] | 6.51 µM [falling, single point]
42 | O=C(c1ccccc1CCc1ccccc1)N1CCOCC1 |  | 0.259 µM [falling, partial curve, poor fit] | 0.651 µM [falling, partial curve]
43 | COCCCn1c(SCC(=O)Nc2sc3c(c2C#N)CCCC3)nnc1-c1ccncc1 | 9.61 | 0.082 µM [rising, full curve, poor fit] | 
44 | CC(C(=O)Nc1ccc2c(c1)OCCO2)c1ccc([N+](=O)[O-])cc1 (stereo not drawn) | 2.9 | 0.58 µM [falling, single point] | 
45 | CCOc1ccc(NC(=O)CN(C)C(=O)CN2C(=O)C3CCCCC3C2=O)cc1OCC (stereo not drawn) | -0.775 | 0.461 µM [rising, full curve, poor fit] | 
46 | C=CCSc1nnc(CCCCCN2C(=O)c3cccc4cccc(c34)C2=O)o1 | -7.27 |  | 
47 | CC1(C)Cc2c(C#N)c(N)sc(=S)c2CO1 | -1.85 | 0.103 µM [rising, full curve, poor fit] | 1.03 µM [rising, full curve]
48 | O=C(NCc1ccccc1)NC1(C(=O)N2CCN(c3ccccc3)CC2)CCCCC1 | -15.5 | 0.0461 µM [falling, partial curve, poor fit] | 
49 | Cc1ccc(OCC(=O)N2CCC(C)CC2)c([N+](=O)[O-])n1 | 35.9 | 23.1 µM [rising, single point] | 32.6 µM [rising, single point]
50 | O=C(CSc1ccncc1)Nc1ccc(S(=O)(=O)Nc2nccs2)cc1 | 90.1 | 18.4 µM [rising, partial curve] | 18.4 µM [rising, single point]
51 | Cc1nnc(-c2ccccc2)c(=O)n1/N=C/c1c(O)ccc2ccccc12 | 4.75 |  | 
52 | CCOc1ccccc1N1CCN(Cc2cn[nH]c2-c2ccc(F)cc2)CC1 | -23.5 | 11.6 µM [falling, partial curve] | 
53 | COc1ccc(C2=NOC(C(=O)Nc3cc(C)on3)C2)cc1OC (stereo not drawn) | 47.3 | 6.51 µM [rising, partial curve, poor fit] | 0.291 µM [rising, full curve, poor fit]
54 | N#Cc1nc(-c2ccccc2Cl)oc1N1CCCCC1 | -10.5 | 2.91 µM [rising, full curve, poor fit] | 
55 | COc1cccc(C2=CC(c3ccc(N(C)C)cc3)n3ncnc3N2)c1 (stereo not drawn) | -11.8 | 2.31 µM [rising, full curve, poor fit] | 
56 | CC(C)c1[nH]c(=O)c(C#N)c2c1COC(C)(C)C2 | -69.9 | 23.1 µM [falling, single point] | 29.1 µM [falling, single point]
57 | Cc1nn(Cc2ccc(Cl)cc2)c(C)c1NC(=O)C(c1ccccc1)c1ccccc1 |  | 16.4 µM [falling, partial curve] | 

An excerpt from above, limited to AC50 [1].
Row	Compound	AC50 [1]
23	O=C(CNC(=O)C1CCCCC1)NC1CCCCC1	32.6 µM [rising, single point]
24	CCOc1ccc(CC(=O)Nc2ccc(-c3ccc4nnc(C)n4n3)cc2)cc1	5.17 µM [falling, partial curve]

3 entries from above in a different format:

| Row | Compound | cell number change [%] | AC50 [1] | AC50 [2] |
| --- | --- | --- | --- | --- |
| 3 | N#CC1=C(SCC(=O)c2ccc(Cl)cc2)NC2=C(C(=O)CCC2)C1c1ccco1 (stereo not drawn) | -25.1 | 0.58 µM [rising, partial curve] |  |
| 12 | Cc1ccccc1NC(=O)C(C)OC(=O)CNS(=O)(=O)c1ccc(C#N)cc1 (stereo not drawn) |  | 6.51 µM [rising, single point] |  |
| 25 | COCCNc1nnc(SCC(=O)Nc2sc3c(c2C(=O)c2ccccc2)CCCC3)s1 | -28.8 | 18.4 µM [falling, partial curve, poor fit] |  |
